{"source": "patent US20100105882A1", "binders": {"B1": {"name": "spacer module DsRed-short (short type mutated dynein stalk antiparallel coiled coil, DsRed with histidine tag and biotin acceptor peptide) (protein)", "chain": "VDQLKIKVEQLKEKVNELELENDELKAKVDNLNSKNRELDVKNEQANQKLKQLVQDVQAAEIKVKDASELQVQLDVRNKEIAVQKVKAHADLEKAEPAIIEGSGDNTEDVIKEFMQFKVRMEGSVNGHYFEIEGEGEGKPYEGTQTAKLQVTKGGPLPFAWDILSPQFQYGSKAYVKHPADIPDYMKLSFPEGFTWERSMNFEDGGVVEVQQDSSLQDGTFIYKVKFKGVNFPADGPVMQKKTAGWEPSTEKLYPQDGVLKGEISHALKLKDGSGHHHHHHHHGSGAGTPVTAPLAGTIWKVLASEGQTVAAGEVLLILEAMKMETEIRAAQAGTVRGIAVKAGDAVAVGDTLMTLAGSGSHYTCDFKTVYKAKKPVQLPGNHYVDSKLDITNHNEDYTVVEQYEHAEARHSGSQSGSEILDRIKPLREEVEQLENAANELKLKQDEIVATITALEKSIASLKEEVATLIRETEQIKTESSKVKAQVQALEIEVKDNKTKVVQLEVEVAQLESEVKDLE", "modifications": "biotinylated (biotin acceptor peptide; residue not stated)"}, "B2": {"name": "spacer module DsRed-long (long type mutated dynein stalk antiparallel coiled coil, DsRed with histidine tag and biotin acceptor peptide) (protein)", "chain": "VDQLKIKVEQLKEKVNELELENDELKAKVDNLNSKNRELDVKNEQANQKLKQLVQDVQAVRIKSQELEVKNAAANDKLKKMVKDQQEAEKKKVMSQEIQEQLHKQQEVIADKQMSVKEDLDKAEIKVKDASELQVQLDVRNKEIAVQKVKAHADLEKAEPAIIEGSGDNTEDVIKEFMQFKVRMEGSVNGHYFEIEGEGEGKPYEGTQTAKLQVTKGGPLPFAWDILSPQFQYGSKAYVKHPADIPDYMKLSFPEGFTWERSMNFEDGGVVEVQQDSSLQDGTFIYKVKFKGVNFPADGPVMQKKTAGWEPSTEKLYPQDGVLKGEISHALKLKDGSGHHHHHHHHGSGAGTPVTAPLAGTIWKVLASEGQTVAAGEVLLILEAMKMETEIRAAQAGTVRGIAVKAGDAVAVGDTLMTLAGSGSHYTCDFKTVYKAKKPVQLPGNHYVDSKLDITNHNEDYTVVEQYEHAEARHSGSQSGSEILDRIKPLREEVEQLENAANELKLKQDEIVATITALEKSIASLRNELQKLEDDAKDNQQKANEVEQMIRDLEASIARYKEEYAVLISEAQAIKADLAAVEAKVKSLKEEVATLIRETEQIKTESSKVKAQVQALEIEVKDNKTKVVQLEVEVAQLESEVKDLE", "modifications": "biotinylated (biotin acceptor peptide; residue not stated)"}}, "biological_target": "streptavidin HRP (UniProt P22629)", "assay": "blot of SDS-PAGE-separated spacer modules on PVDF membrane, probed with streptavidin HRP", "note": "Results are given in words; binding and its absence hold for the method and conditions named. Some binding calls cover weakened binding; strength is not graded here. Where a sequence is shown, tags or fusion partners need not be part of it.", "data": [{"binder": "B1", "values": [{"measurement": "binding", "result": "binds"}]}, {"binder": "B2", "values": [{"measurement": "binding", "result": "binds"}]}]}
